Reference: patent US20170152311A1
Results are given in words; binding and its absence hold for the method and conditions named. Some results given as binding are weak or reduced against the parent protein; the word gives no strength.

Amino acid sequences for entries named in this document (tags omitted). A change or cut given only in a name is not applied to a line headed by its entry.
UniProt P09603: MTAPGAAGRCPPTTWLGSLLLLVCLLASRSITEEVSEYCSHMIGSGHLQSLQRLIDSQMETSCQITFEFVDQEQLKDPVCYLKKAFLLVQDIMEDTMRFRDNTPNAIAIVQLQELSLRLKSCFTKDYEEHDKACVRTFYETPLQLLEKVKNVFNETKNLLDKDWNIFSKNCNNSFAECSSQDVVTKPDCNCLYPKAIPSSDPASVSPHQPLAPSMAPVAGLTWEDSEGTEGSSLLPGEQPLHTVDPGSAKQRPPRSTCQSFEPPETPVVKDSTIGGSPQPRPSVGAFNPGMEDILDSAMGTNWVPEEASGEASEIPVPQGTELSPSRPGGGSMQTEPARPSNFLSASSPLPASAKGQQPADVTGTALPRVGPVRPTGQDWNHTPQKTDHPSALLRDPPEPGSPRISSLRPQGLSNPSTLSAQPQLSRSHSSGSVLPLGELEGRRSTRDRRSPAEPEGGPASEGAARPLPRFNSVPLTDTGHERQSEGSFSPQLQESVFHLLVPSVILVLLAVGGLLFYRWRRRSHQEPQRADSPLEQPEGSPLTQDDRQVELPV

Tests used:
[1] = biological target: recombinant human M-CSF (human) (UniProt P09603); assay: ELISA screening of hybridoma clones
[2] = biological target: recombinant human M-CSF (human) (UniProt P09603); assay: size exclusion chromatography or light scattering of equimolar M-CSF and antibody

Row | binding [1] | binding [2] | Binder
1 | binds |  | murine monoclonal antibody MC1 (antibody, mouse IgG2a, kappa, V domains shown) VH: EVKLVESGGGLVQPGGSLKLSCATSGFTFSDYYMYWVRQTPEKRLEWVAYISNGGGSTYYPDTVKGRFTISRDNAKNTLYLQMSRLKSEDTAMYYCARQGSYGYPFAYWGQGTLVTVSA VL: AIQMTQTTSSLSASLGDRVTISCSASQGISNYLNWYQQKPDGTVKLLIYYTSSLHSGVPSRFSGSGSGTDYSLTISNLEPEDIATYYCQQYSKLPWTFGGGTKLEIKR
2 |  | binds | heRX1-9.G2 (antibody, V domains shown, not shown: a dimerising Fc or GST) VH: DVQLQESGPGLVKPSQTLSLTCTVTDYSITSDYAWNWIRQFPGKKLEWMGYISYSGSTSYNPSLKSRITISRDTSKNQFSLQLNSVTAADTATYYCASFDYAHAMDYWGQGTTVTVSS VL: DIVLTQSPAFLSVTPGEKVTFTCQASQSIGTSIHWYQQKTDQAPKLLIKYASESISGIPSRFSGSGSGTDFTLTISSVEAEDAADYYCQQINSWPTTFGGGTKLEIKR
3 |  | binds | heRX1-1.G2 (antibody, not shown: a dimerising Fc or GST) heavy: DVQLQESGPGLVKPSQTLSLTCTVTDYSITSDYAWNWIRQFPGKKLEWMGYISYSGSTSYNPSLKSRITISRDTSKNQFSLQLNSVTAADTATYYCASFDYAHAMDYWGQGTTVTVSS light: EIVLTQSPGTLSVSPGERVTFSCRASQSIGTSIHWYQQKTGQSPRLLIKYASERISGIPDRFSGSGSGTDFTLTISRVESEDFADYYCQQINSWPTTFGQGTKLEIKRT
4 |  | binds | heRX1-10.G2 (antibody, V domains shown, not shown: a dimerising Fc or GST) VH: QVQLQESGPGLVKPSQTLSLTCTVSDYSITSDYAWNWIRQFPGKGLEWMGYISYSGSTSYNPSLKSRITISRDTSKNQFSLQLNSVTAADTAVYYCASFDYAHAMDYWGQGTTVTVSS VL: DIVLTQSPAFLSVTPGEKVTFTCQASQSIGTSIHWYQQKTDQAPKLLIKYASESISGIPSRFSGSGSGTDFTLTISSVEAEDAADYYCQQINSWPTTFGGGTKLEIKR
